Assay results: the supplement of paper PMC4683952
Structures can show the parent of a compound that is named as a salt. Screen size: about 1,200 compounds; about 50 (4%) showed activity. Rule as the data show it: all actives reach 1.3 or more but so do some inactives. The list shows a part of the results.

system: Lgr5 (MarsCy1-Lgr5-EGFP, U2OS); experiment: cell-surface Lgr5 expression (SCi1 fluorescence, background-subtracted) relative to WT DMSO (fold of DMSO control); higher = more Lgr5 at the plasma membrane, active = hit call of the paper; details: U2OS MarsCy1-Lgr5-EGFP stable; treatment time: overnight; 16 µM; library: Johns Hopkins Clinical Compound Library

cell-surface Lgr5 expression, inactive:
COc1cnc(NS(=O)(=O)c2ccc(N)cc2)nc1 [Sulfameter] 0.961
Cc1cccc(CN2CCN(C(c3ccccc3)c3ccc(Cl)cc3)CC2)c1 (stereo not given) [Meclizine] 0.976
CCCCC(C)(O)C/C=C/[C@H]1[C@H](O)CC(=O)[C@@H]1CCCCCCC(=O)OC (mixture of isomers) [Misoprostol] 1.07
CNCCC(Oc1ccccc1OC)c1ccccc1 (stereo not given) [Nisoxetine hydrochloride] 1.05
COc1ccccc1O [Guaiacol] 1.1
O=NN(CCCl)C(=O)NC1CCCCC1 [Lomustine] 1.37
[Cl][Fe]([Cl])[Cl] [Ferric chloride anhydrous] 0.998
CC(C)NCC(O)COc1cccc2ccccc12 (stereo not given) [Propranolol] 1.07
CC(=O)N[C@@H]([C@@H](O)[C@H](O)[C@H](O)CO)[C@@H](O)CC(=O)C(=O)O [Aceneuramic acid (N-Acetylneuraminic acid)] 1.16
CCCCCCc1ccc(O)cc1O [4 Hexylresorcinol] 1.06
O=C1CCc2cc(OCCCCc3nnnn3C3CCCCC3)ccc2N1 [Cilostazol] 1.03
CCS(=O)(=O)CCn1c([N+](=O)[O-])cnc1C [Tinidazole] 0.994
O=P(O)(O)C(Cl)(Cl)P(=O)(O)O [Clodronate disodium] 0.683
O=P(O)(O)C(Cl)(Cl)P(=O)(O)O 0.743
CCC1=C(C)CN(C(=O)NCCc2ccc(S(=O)(=O)NC(=O)N[C@H]3CC[C@H](C)CC3)cc2)C1=O [Glimepiride] 1.01
C.CCC(C)C.CCC(CC(C)c1ccccc1)c1ccc(C[N+](C)(C)C)cc1 (stereo not given) [Cholestyramine resin] 0.898
CCCCn1c(=O)c2c(ncn2CC(C)=O)n(CCCC)c1=O [Denbufylline] 1.44
COc1ccc2cc1Oc1ccc(cc1)C[C@H]1c3cc(c(OC)cc3CCN1C)Oc1c(OC)c(OC)cc3c1[C@H](C2)N(C)CC3 [Tetrandrine (s,s +)] 1.03
OCc1cc(C(O)CNCCCCCCOCCCCc2ccccc2)ccc1O (stereo not given) [Salmeterol (serevent discus)] 1.19
O=S(=O)([O-])[O-].O=S(=O)([O-])[O-].[Al+3].[Na+] [Aluminum sodium sulfate] 0.71
N=C(N)NCCC[C@H](N)C(=O)O [L-Arginine] 0.917
O=c1oc2cc(O)ccc2c2oc3cc(O)ccc3c12 [Coumestrol] 1.03
C=C1c2c(Cl)ccc(O)c2C(O)=C2C(=O)[C@]3(O)C(O)=C(C(N)=O)C(=O)[C@@H](N(C)C)[C@@H]3[C@@H](O)[C@H]12.O=C(O)c1cc(S(=O)(=O)O)ccc1O [Meclocycline sulfosalicylate salt] 0.705
CNCCC(Oc1ccc(C(F)(F)F)cc1)c1ccccc1 (stereo not given) [Fluoxetine] 0.305
Cc1nc2n(c(=O)c1CCN1CCC(c3noc4cc(F)ccc34)CC1)CCCC2 [Risperidone] 0.587
CC1(C)S[C@@H]2[C@H](NC(=O)COc3ccccc3)C(=O)N2[C@H]1C(=O)O.CN(C)[C@@H]1C(O)=C(C(=O)NCN2CCN(CCO)CC2)C(=O)[C@@]2(O)C(O)=C3C(=O)c4c(O)cccc4[C@@](C)(O)[C@H]3C[C@@H]12 [Penimepicycline] 0.846
Nc1ncnc2c1ncn2[C@@H]1O[C@H](COP(=O)(O)OP(=O)(O)OP(=O)(O)O)[C@@H](O)[C@H]1O [Adenosine triphosphate disodium (ATP)] 0.944
CC(=O)N[C@H]1[C@H]([C@H](O)[C@H](O)CO)OC(C(=O)O)=C[C@@H]1NC(=N)N [Zanamivir] 1.26
CCN1CC(CCN2CCOCC2)C(c2ccccc2)(c2ccccc2)C1=O (stereo not given) [Doxapram hydrochloride] 1
CCCCNC(=O)NS(=O)(=O)c1ccc(C)cc1 [Tolbutamide] 0.945
CC(=O)[C@H]1CC[C@H]2[C@@H]3C[C@H](C)C4=CC(=O)CC[C@]4(C)[C@H]3[C@@H](O)C[C@]12C [Medrysone (6-alpha-Methyl-11-beta-Hydroxyprogesterone)] 1.27
CCCCCCN(C)C [N,N-Dimethylhexylamine] 1.05
O=S(=O)(O)CCS [Mesna (2-Mercaptoethanesulfonic acid)] 0.844
O=S(=O)(O)CCS [Mesna (2-Mercaptoethane Sulfonic Acid Sodium Salt)] 0.815
CC(=O)Nc1c(I)c(C(=O)O)c(I)c(N(C)C(C)=O)c1I [Metrizoic acid] 1.1
CC(C)(C)NC[C@H](O)c1ccc(O)c(CO)c1 [Levalbuterol] 0.94
C[C@@H](C1=C(CCN(C)C)Cc2ccccc21)c1ccccn1 [Dimethindene (S, +) maleate] 1.32
Cc1c(C)c2c(c(C)c1O)CC[C@@](C)(CCC[C@H](C)CCC[C@H](C)CCCC(C)C)O2 [Vitamin E] 0.965
CC(C)c1nc(CN(C)C(=O)N[C@H](C(=O)N[C@@H](Cc2ccccc2)C[C@H](O)[C@H](Cc2ccccc2)NC(=O)OCc2cncs2)C(C)C)cs1.Cc1cccc(C)c1OCC(=O)N[C@@H](Cc1ccccc1)[C@@H](O)C[C@H](Cc1ccccc1)NC(=O)[C@H](C(C)C)N1CCCNC1=O [Lopinavir/Ritonavir] 0.373
O=C(O)c1cc(O)c(O)c(O)c1 [Gallic acid] 0.979
CN1CCC[C@H]1c1cccnc1 [Nicotine] 0.465
CCCCCCCCCCCCN [Dodecylamine] 0.823
Clc1ccc(COC(Cn2ccnc2)c2ccc(Cl)cc2Cl)cc1 (stereo not given) [Econazole] 0.806
Clc1ccccc1C(c1ccccc1)(c1ccccc1)n1ccnc1 [Clotrimazole] 0.707
NC(=O)NO [Hydroxyurea] 1.04
CC(=O)c1ccc2c(c1)N(CCCN1CCN(CCO)CC1)c1ccccc1S2 [Acetophenazine maleate] 1.05
CCN1CCCC1CNC(=O)c1cc(S(N)(=O)=O)ccc1OC (racemic) [Sulpiride (+/-)-] 1.07
O=C(O)c1cc(=O)c2c(OCC(O)COc3cccc4oc(C(=O)O)cc(=O)c34)cccc2o1 [Cromolyn] 0.94
CC(=O)OC(C)C[N+](C)(C)C (stereo not given) [Methacholine chloride] 0.738
O=C([O-])[O-].[Ca+2] [Calcium carbonate] 0.936
CCCCCCCCCCCCCCCCO [Cetyl alcohol (1-Hexadecanol)] 1.27
O=S(=O)(O)c1cc(O)c2c(/N=N/c3ccc(Nc4ccccc4)c4c(S(=O)(=O)O)cccc34)cc(S(=O)(=O)O)cc2c1 [Anazolene sodium (Acid blue 92)] 1.23
Cc1c(O)cccc1C(=O)N[C@@H](CSc1ccccc1)[C@H](O)CN1C[C@H]2CCCC[C@H]2C[C@H]1C(=O)NC(C)(C)C [Nelfinavir mesylate] 0.364
CCSc1ccc2c(c1)N(CCCN1CCN(C)CC1)c1ccccc1S2 [Thiethylperazine malate] 1.12
CN(C)CCC(c1ccccc1)c1ccccn1 (stereo not given) [Pheniramine] 1.02
O[C@@H]1CO[C@H]2[C@@H]1OC[C@@H]2O [Isosorbide] 1.26
O=C1NC(c2ccccc2)(c2ccccc2)C(=O)N1COP(=O)(O)O [Fosphenytoin sodium] 0.73
O=C(O)[C@@H](S)[C@@H](S)C(=O)O [Succimer (meso-2,3-dimercaptosuccinic acid)] 0.767
CCOc1nc2cccc(C(=O)OC(C)OC(=O)OC3CCCCC3)c2n1Cc1ccc(-c2ccccc2-c2nn[nH]n2)cc1 (stereo not given) [Candesartan cilexetil] 0.874
O=C([O-])CN(CCN(CC(=O)[O-])CC(=O)[O-])CC(=O)[O-].[Fe+3].[Na+] [Sodium feredetate (Ethylenediaminetetraacetic acid, EDTA)] 0.765
CNC1(C)C2CCC(C2)C1(C)C (stereo not given) [Mecamylamine] 1.13
CCCCCCCCCCCCCCCCCC(=O)[O-].CCCCCCCCCCCCCCCCCC(=O)[O-].[Zn+2] [Zinc stearate] 0.658
O=C(O)CCc1nc2ccccc2[nH]1 [Procodazole (2-Benzimidazolepropionic acid)] 0.763
C=C(NC(=O)C(=C)NC(=O)c1csc(C2=N[C@@H]3c4csc(n4)[C@H]4NC(=O)c5csc(n5)[C@H]([C@](C)(O)[C@@H](C)O)NC(=O)[C@H]5CSC(=N5)/C(=C/C)NC(=O)[C@H]([C@@H](C)O)NC(=O)c5csc(n5)[C@]3(CC2)NC(=O)[C@H](C)NC(=O)C(=C)NC(=O)[C@H](C)NC(=O)[C@H]([C@@H](C)CC)N[C@@H]2C=Cc3c([C@H](C)O)cc(nc3[C@H]2O)C(=O)O[C@@H]4C)n1)C(N)=O [Thiostrepton] 1.27

Already shown: an excerpt of the list.
cell-surface Lgr5 expression, inactive:
CCCCNC(=O)NS(=O)(=O)c1ccc(C)cc1 [Tolbutamide] 0.945
CC(=O)[C@H]1CC[C@H]2[C@@H]3C[C@H](C)C4=CC(=O)CC[C@]4(C)[C@H]3[C@@H](O)C[C@]12C [Medrysone (6-alpha-Methyl-11-beta-Hydroxyprogesterone)] 1.27
CCCCCCN(C)C [N,N-Dimethylhexylamine] 1.05
O=S(=O)(O)CCS [Mesna (2-Mercaptoethanesulfonic acid)] 0.844

Following part.

cell-surface Lgr5 expression, active:
CCCCOc1ccc(CC(=O)NO)cc1 [Bufexamac] 1.82
